This passage reports binding results from publication PMC7404392.

No constants are given. Whether binding was seen depends on the method and setting. Binding seen in cells or lysates may run through a third protein. Some binding calls cover weakened binding; strength is not graded here. Where a sequence is shown, tags or fusion partners need not be part of it.

The target of assay [1] is T1, Kv4.3-Flag (pCMV-KCND3-Long-FLAG) (human) (UniProt Q9UK17).
T1 sequence: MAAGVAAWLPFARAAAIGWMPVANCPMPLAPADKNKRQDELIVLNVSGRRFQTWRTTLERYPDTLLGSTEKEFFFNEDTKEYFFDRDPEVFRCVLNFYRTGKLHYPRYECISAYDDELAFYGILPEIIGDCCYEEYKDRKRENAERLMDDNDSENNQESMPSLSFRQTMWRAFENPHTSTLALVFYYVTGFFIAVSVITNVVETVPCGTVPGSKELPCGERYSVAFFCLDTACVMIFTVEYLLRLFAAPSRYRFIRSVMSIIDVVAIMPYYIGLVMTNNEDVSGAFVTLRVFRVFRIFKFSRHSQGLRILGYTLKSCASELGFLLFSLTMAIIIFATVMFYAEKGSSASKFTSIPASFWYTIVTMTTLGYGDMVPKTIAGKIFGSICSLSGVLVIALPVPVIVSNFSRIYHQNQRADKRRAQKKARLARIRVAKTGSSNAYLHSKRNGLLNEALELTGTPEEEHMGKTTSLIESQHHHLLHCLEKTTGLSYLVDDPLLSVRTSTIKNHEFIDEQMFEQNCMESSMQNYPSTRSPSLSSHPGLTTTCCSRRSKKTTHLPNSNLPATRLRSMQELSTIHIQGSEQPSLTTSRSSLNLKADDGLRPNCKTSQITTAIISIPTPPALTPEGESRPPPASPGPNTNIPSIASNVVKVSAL
In words: co-IP; HEK293 cells co-transfected with Nav1.5 constructs and Kv4.3-Flag; lysis in 50 mM Tris pH 7.5, 150 mM NaCl, 2 mM EDTA, 1% Triton; anti-Flag antibody on Dynabeads Protein G, overnight at 4 °C; blots with anti-Nav1.5 and anti-Flag.

For assay [2], the target named is T1, Kv4.3-Flag (pCMV-KCND3-Long-FLAG) (human). In words: proximity ligation; Duolink on methanol-fixed HEK293 cells co-expressing GFP-Nav1.5 or GFP with Kv4.3-Flag; rabbit anti-GFP and mouse anti-Flag primary antibodies, PLA probes, confocal microscopy.

As to “GFP-Nav1.5 (WT; pcDNA3.1-GFP-SCN5A) (from UniProt Q14524 1-2016)”, the binding result in assay [1] and in assay [2] was “binds” in each case.
